Assay results from publication PMC11827600.
No constants are given. Whether binding was seen depends on the method and setting. In cells and extracts the contact can be indirect. Some results given as binding are weak or reduced against the parent protein; the word gives no strength.

By UniProt entry, the sequences of proteins in these tests, tags left out. Where a name states a change or a piece, a line headed by the entry shows the natural chain unless it says otherwise. Chains listed by the source or under a name are the forms on record and can include a tag or linker.
UniProt P38432: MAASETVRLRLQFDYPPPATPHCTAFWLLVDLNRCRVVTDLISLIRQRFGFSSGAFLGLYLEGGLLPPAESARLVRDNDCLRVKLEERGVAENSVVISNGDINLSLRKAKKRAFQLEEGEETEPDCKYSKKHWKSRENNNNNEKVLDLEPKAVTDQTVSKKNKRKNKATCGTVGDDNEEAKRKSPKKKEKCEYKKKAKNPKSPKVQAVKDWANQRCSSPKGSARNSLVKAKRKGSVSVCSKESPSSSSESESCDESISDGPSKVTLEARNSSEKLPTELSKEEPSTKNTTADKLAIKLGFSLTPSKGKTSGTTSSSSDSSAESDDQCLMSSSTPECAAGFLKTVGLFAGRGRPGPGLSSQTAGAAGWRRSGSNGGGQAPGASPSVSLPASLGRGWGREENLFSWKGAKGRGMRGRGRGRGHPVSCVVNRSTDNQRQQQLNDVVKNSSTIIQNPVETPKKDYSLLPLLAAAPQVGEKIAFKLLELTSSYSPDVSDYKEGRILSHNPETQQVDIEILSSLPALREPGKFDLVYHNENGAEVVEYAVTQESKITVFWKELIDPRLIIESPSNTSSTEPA
coilin–GFP mutant I (P38432, form named): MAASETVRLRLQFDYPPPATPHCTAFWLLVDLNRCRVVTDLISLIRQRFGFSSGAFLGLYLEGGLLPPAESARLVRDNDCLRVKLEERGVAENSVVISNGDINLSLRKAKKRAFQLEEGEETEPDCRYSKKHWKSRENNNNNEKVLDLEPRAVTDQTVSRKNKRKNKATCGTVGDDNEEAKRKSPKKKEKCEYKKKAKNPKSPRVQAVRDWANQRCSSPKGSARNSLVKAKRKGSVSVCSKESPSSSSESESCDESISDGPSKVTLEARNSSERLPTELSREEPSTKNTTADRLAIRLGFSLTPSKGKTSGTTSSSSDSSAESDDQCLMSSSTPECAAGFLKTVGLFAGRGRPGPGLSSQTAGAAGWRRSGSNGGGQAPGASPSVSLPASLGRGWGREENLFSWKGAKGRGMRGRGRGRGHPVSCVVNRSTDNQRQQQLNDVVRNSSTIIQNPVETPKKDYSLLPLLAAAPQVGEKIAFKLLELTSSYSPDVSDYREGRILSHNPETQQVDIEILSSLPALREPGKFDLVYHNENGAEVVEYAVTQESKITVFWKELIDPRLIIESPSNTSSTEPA
coilin–GFP mutant L (P38432, form named): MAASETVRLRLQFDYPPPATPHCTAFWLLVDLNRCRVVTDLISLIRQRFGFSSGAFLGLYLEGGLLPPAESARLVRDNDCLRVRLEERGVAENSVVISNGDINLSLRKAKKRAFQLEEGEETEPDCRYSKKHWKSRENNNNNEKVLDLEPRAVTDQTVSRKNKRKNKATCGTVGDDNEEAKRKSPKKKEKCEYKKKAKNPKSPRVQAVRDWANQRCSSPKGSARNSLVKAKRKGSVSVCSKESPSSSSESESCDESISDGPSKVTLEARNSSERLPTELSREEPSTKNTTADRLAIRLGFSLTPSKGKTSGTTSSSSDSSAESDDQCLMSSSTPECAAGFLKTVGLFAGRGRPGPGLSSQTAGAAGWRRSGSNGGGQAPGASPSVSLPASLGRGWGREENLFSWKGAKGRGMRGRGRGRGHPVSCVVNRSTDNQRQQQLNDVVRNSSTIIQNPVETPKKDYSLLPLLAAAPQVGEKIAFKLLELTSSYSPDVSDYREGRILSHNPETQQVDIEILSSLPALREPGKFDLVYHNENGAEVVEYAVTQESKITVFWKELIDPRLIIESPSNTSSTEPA

What was measured:
Test in all cases: co-IP; HeLa cells transfected 24 h; lysate in RIPA buffer plus protease inhibitors, sonicated; immunoprecipitation with anti-GFP mouse monoclonal antibody and protein G beads, three washes with RIPA; western blot for Nopp140 and GFP
WT coilin–GFP = WT coilin–GFP (UniProt P38432)
coilin–GFP mutant I = coilin–GFP mutant I (UniProt P38432)
coilin–GFP mutant L = coilin–GFP mutant L (UniProt P38432)

binding (WT coilin–GFP): binds
binding (coilin–GFP mutant I): binds
binding (coilin–GFP mutant L): binds
B1: Nopp140 (protein, UniProt Q14978 1-699)
chain: MADAGIRRVVPSDLYPLVLGFLRDNQLSEVANKFAKATGATQQDANASSLLDIYSFWLKSAKVPERKLQANGPVAKKAKKKASSSDSEDSSEEEEEVQGPPAKKAAVPAKRVGLPPGKAAAKASESSSSEESSDDDDEEDQKKQPVQKGVKPQAKAAKAPPKKAKSSDSDSDSSSEDEPPKNQKPKITPVTVKAQTKAPPKPARAAPKIANGKAASSSSSSSSSSSSDDSEEEKAAATPKKTVPKKQVVAKAPVKAATTPTRKSSSSEDSSSDEEEEQKKPMKNKPGPYSSVPPPSAPPPKKSLGTQPPKKAVEKQQPVESSEDSSDESDSSSEEEKKPPTKAVVSKATTKPPPAKKAAESSSDSSDSDSSEDDEAPSKPAGTTKNSSNKPAVTTKSPAVKPAAAPKQPVGGGQKLLTRKADSSSSEEESSSSEEEKTKKMVATTKPKATAKAALSLPAKQAPQGSRDSSSDSDSSSSEEEEEKTSKSAVKKKPQKVAGGAAPSKPASAKKGKAESSNSSSSDDSSEEEEEKLKGKGSPRPQAPKANGTSALTAQNGKAAKNSEEEEEEKKKAAVVVSKSGSLKKRKQNEAAKEAETPQAKKIKLQTPNTFPKRKKGEKRASSPFRRVREEEIEVDSRVADNSFDAKRGAAGDWGERANQVLKFTKGKSFRHEKTKKKRGSYRGGSISVQVNSIKFDSE
